The list shows only some results of the screen, not a fair sample: it gathers tests that were run many times, whatever their T/C, doses with no T/C, and many T/C values between a quarter and a half above the control. Further doses and runs are listed elsewhere. T/C: endpoint of the treated group in % of that of the vehicle group. Some entries give survivors of the animals treated and no T/C: the source files T/C as zero there, which appears to mark a toxic dose or a test without result, not a measured value. Some survivor counts are full or nearly so, which does not show that the dose was tolerated: survival well below the control is almost never listed, so the zero probably covers shortened survival too. Survivors were counted at the toxicity check, usually on the fifth day, unless a day is given; later deaths do not show. Schedule codes are those of the source, taken here to give the interval after Q, in days (D) or hours (H), and the number of doses after X. Some entries hold several experiments; the values are given in rising order. Where survival is the endpoint, this PubChem deposit counts one and a half times the control or more as active, and values a quarter to a half above the control carry no call in these data; other NCI protocols may use other cut-offs.
Tested on: CD2F1 mice, L1210 leukemia ip, survival T/C
Test: NCI In Vivo Anticancer Drug Screen. Data for tumor model L1210 Leukemia (intraperitoneal) in CD2F1 (CDF1) mice
Details: higher T/C = longer survival
Outline: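 Activity against a transplanted murine tumor was judged by comparing the compound group with a vehicle group. The outcome in the treated animals was divided by that in the controls.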

[1] = T/C endpoint: mean survival time, dose: 100.0 mg/kg/injection, schedule: Q04DX003 (ip), vehicle: saline with Tween-80
[2] = T/C endpoint: mean survival time, dose: 400.0 mg/kg/injection, schedule: Q04DX003 (ip), vehicle: saline with Tween-80
[3] = T/C endpoint: mean survival time, dose: 80.0 mg/kg/injection, schedule: Q01DX001 (ip), vehicle: saline
[4] = T/C endpoint: mean survival time, dose: 25.0 mg/kg/injection, schedule: Q01DX009 (ip), vehicle: Klucel (hydroxypropylcellulose) (HPC)
[5] = T/C endpoint: mean survival time, dose: 50.0 mg/kg/injection, schedule: Q01DX009 (ip), vehicle: Klucel (hydroxypropylcellulose) (HPC)
[6] = T/C endpoint: mean survival time, dose: 150.0 mg/kg/injection, schedule: Q01DX001 (ip), vehicle: saline
[7] = T/C endpoint: mean survival time, dose: 300.0 mg/kg/injection, schedule: Q01DX001 (ip), vehicle: saline
[8] = T/C endpoint: mean survival time, dose: 100.0 mg/kg/injection, schedule: Q01DX009 (ip), vehicle: Klucel (hydroxypropylcellulose) (HPC)
[9] = T/C endpoint: mean survival time, dose: 200.0 mg/kg/injection, schedule: Q01DX009 (ip), vehicle: Klucel (hydroxypropylcellulose) (HPC)

S=C(S)NNc1ccccc1
survivor count [1]: 6 of 6
survivor count [2]: 0 of 6

CC[C@@H](C)[C@H]([C@H](CC(=O)N1CCC[C@@H]1[C@@H](OC)[C@H](C)C(=O)N[C@H](Cc1ccccc1)c1nccs1)OC)N(C)C(=O)[C@H](NC(=O)[C@@H](C(C)C)N(C)C)C(C)C
T/C (T/C endpoint: median survival time, dose: 3.25 micrograms/kg/injection, schedule: Q01DX005 (ip), vehicle: saline + alcohol): 138 % of control
T/C (T/C endpoint: median survival time, dose: 13.0 micrograms/kg/injection, schedule: Q01DX005 (ip), vehicle: saline + alcohol): 148 % of control

O=C1Nc2ccccc2C(=O)Nc2ccccc21
survivor count (T/C endpoint: mean survival time, dose: 400.0 mg/kg/injection, schedule: Q01DX009 (ip), vehicle: Klucel (hydroxypropylcellulose) (HPC)): 6 of 6

C=CC1OC2CCCCC2O1 (stereo unspecified)
survivor count (T/C endpoint: mean survival time, dose: 200.0 mg/kg/injection, schedule: Q01DX001 (ip), vehicle: acetone): 0 of 6
survivor count (T/C endpoint: mean survival time, dose: 400.0 mg/kg/injection, schedule: Q01DX001 (ip), vehicle: acetone): 1 of 6

COc1ccc(S(=O)(=O)N/N=C/C(=O)O)cc1
T/C (T/C endpoint: mean survival time, dose: 25.0 mg/kg/injection, schedule: Q01DX009 (ip), vehicle: saline with Tween-80): 131 % of control
T/C (T/C endpoint: mean survival time, dose: 50.0 mg/kg/injection, schedule: Q04DX003 (ip), vehicle: other): 130 and 132 % of control
T/C (T/C endpoint: mean survival time, dose: 100.0 mg/kg/injection, schedule: Q01DX009 (ip), vehicle: alkali diluted with water): 142 % of control
T/C (T/C endpoint: mean survival time, dose: 100.0 mg/kg/injection, schedule: Q04DX003 (ip), vehicle: other): 134 and 143 % of control
survivor count (T/C endpoint: mean survival time, dose: 200.0 mg/kg/injection, schedule: Q01DX009 (ip), vehicle: saline with Tween-80): 8 of 10
survivor count (T/C endpoint: mean survival time, dose: 400.0 mg/kg/injection, schedule: Q04DX003 (ip), vehicle: other): 4 of 10 and 5 of 6

CCC1(O)C(=O)OCc2c1cc1n(c2=O)Cc2cc3ccc(O)cc3nc2-1 (stereo unspecified)
T/C (T/C endpoint: median survival time, dose: 7.5 mg/kg/injection, schedule: Q04DX002 (ip), vehicle: Klucel (hydroxypropylcellulose) (HPC)): 142 % of control
T/C (T/C endpoint: median survival time, dose: 15.0 mg/kg/injection, schedule: Q04DX002 (ip), vehicle: Klucel (hydroxypropylcellulose) (HPC)): 131 % of control
T/C (T/C endpoint: median survival time, dose: 30.0 mg/kg/injection, schedule: Q04DX002 (ip), vehicle: Klucel (hydroxypropylcellulose) (HPC)): 141 % of control
T/C (T/C endpoint: median survival time, dose: 120.0 mg/kg/injection, schedule: Q04DX002 (ip), vehicle: Klucel (hydroxypropylcellulose) (HPC)): 149 % of control

C(CC1CCNCC1)CC1CCNCC1
survivor count [1]: 0 of 3

OC1CC2CCC(C1)N2CCCN1c2ccccc2Sc2ccc(Cl)cc21 (stereo unspecified)
survivor count (T/C endpoint: mean survival time, dose: 60.0 mg/kg/injection, schedule: Q01DX009 (ip), vehicle: saline): 2 of 6
survivor count (T/C endpoint: mean survival time, dose: 133.0 mg/kg/injection, schedule: Q04DX003 (ip), vehicle: saline with Tween-80): 1 of 6
survivor count (T/C endpoint: mean survival time, dose: 200.0 mg/kg/injection, schedule: Q04DX003 (ip), vehicle: saline with Tween-80): 0 of 6
survivor count (T/C endpoint: mean survival time, dose: 300.0 mg/kg/injection, schedule: Q04DX003 (ip), vehicle: saline with Tween-80): 0 of 6

CC([NH-])CC(C)[NH-].[I][Pt+2][I] (stereo unspecified)
T/C (T/C endpoint: mean survival time, dose: 25.0 mg/kg/injection, schedule: Q04DX003 (ip), vehicle: saline with Tween-80): 125 % of control

O=P(O)(O)OCC1OC(n2cnc3c(NCc4ccccc4)ncnc32)C(O)C1O (stereo unspecified)
survivor count (T/C endpoint: mean survival time, dose: 200.0 mg/kg/injection, schedule: Q01DX005 (ip), vehicle: other): 0 of 6

C[n+]1c(-c2cccc(-c3ccccc3)c2)c2cc([N+](=O)[O-])ccc2c2ccccc21
survivor count (T/C endpoint: mean survival time, dose: 50.0 mg/kg/injection, schedule: Q01DX009 (ip), vehicle: water): 6 of 6
survivor count (T/C endpoint: mean survival time, dose: 100.0 mg/kg/injection, schedule: Q01DX009 (ip), vehicle: water): 4 of 6
survivor count (T/C endpoint: mean survival time, dose: 200.0 mg/kg/injection, schedule: Q01DX009 (ip), vehicle: water): 1 of 6
survivor count (T/C endpoint: mean survival time, dose: 400.0 mg/kg/injection, schedule: Q01DX009 (ip), vehicle: water): 0 of 6

CC(/C=N/O)=N\O.CC(/C=N/O)=N\O.[Pd]
survivor count (T/C endpoint: mean survival time, dose: 6.25 mg/kg/injection, schedule: Q01DX009 (ip), vehicle: saline with Tween-80): 2 of 3
survivor count (T/C endpoint: mean survival time, dose: 6.25 mg/kg/injection, schedule: Q04DX002 (ip), vehicle: saline with Tween-80): 2 of 3
survivor count (T/C endpoint: mean survival time, dose: 12.5 mg/kg/injection, schedule: Q04DX002 (ip), vehicle: saline with Tween-80): 1 of 3
survivor count (T/C endpoint: mean survival time, dose: 25.0 mg/kg/injection, schedule: Q04DX002 (ip), vehicle: saline with Tween-80): 0 of 3
survivor count (T/C endpoint: mean survival time, dose: 50.0 mg/kg/injection, schedule: Q04DX002 (ip), vehicle: saline with Tween-80): 2 of 3
survivor count (T/C endpoint: mean survival time, dose: 100.0 mg/kg/injection, schedule: Q04DX002 (ip), vehicle: saline with Tween-80): 0 of 3
survivor count (T/C endpoint: mean survival time, dose: 200.0 mg/kg/injection, schedule: Q04DX002 (ip), vehicle: saline with Tween-80): 0 of 3
survivor count (T/C endpoint: mean survival time, dose: 400.0 mg/kg/injection, schedule: Q04DX002 (ip), vehicle: saline with Tween-80): 0 of 3

COC1=C2C[C@@H](C)C[C@@H](OC)[C@@H](O)[C@H](C)/C=C(\C)[C@@H](OC(N)=O)[C@H](OC)/C=C\C=C(/C)C(=O)NC(=CC1=O)C2=O
survivor count (T/C endpoint: mean survival time, dose: 20.0 mg/kg/injection, schedule: Q01DX001 (ip), vehicle: saline): 1 of 6
survivor count (T/C endpoint: mean survival time, dose: 40.0 mg/kg/injection, schedule: Q01DX001 (ip), vehicle: saline): 0 of 6
survivor count [3]: 0 of 6

O=C(CCCCCCC(=O)ON1C(=O)CCC1=O)ON1C(=O)CCC1=O
survivor count (T/C endpoint: median survival time, dose: 400.0 mg/kg/injection, schedule: Q01DX009 (ip), vehicle: saline with Tween-80): 3 of 6

ClC1CCC(Cl)C2CCC3C(Cl)CCC1[S+]23 (stereo unspecified)
survivor count [4]: 0 of 6
survivor count [5]: 0 of 6

COc1csn[n+]1-c1ccc(C)cc1
survivor count [6]: 2 of 6
survivor count [7]: 0 of 6

O=[As](O)(c1ccccc1)C1CCCCC1O (stereo unspecified)
survivor count (T/C endpoint: mean survival time, dose: 50.0 mg/kg/injection, schedule: Q01DX001 (ip), vehicle: saline with Tween-80): 3 of 6
survivor count (T/C endpoint: mean survival time, dose: 100.0 mg/kg/injection, schedule: Q01DX001 (ip), vehicle: saline with Tween-80): 1 of 6

C=C(C)CNC1=C(C)C(=O)C2=C(C1=O)[C@H](COC(N)=O)[C@]1(OC)[C@@H]3N[C@@H]3CN21
T/C (T/C endpoint: mean survival time, dose: 6.0 mg/kg/injection, schedule: Q01DX001 (ip), vehicle: distilled water + Tween-80): 138 % of control
T/C (T/C endpoint: mean survival time, dose: 24.0 mg/kg/injection, schedule: Q01DX001 (ip), vehicle: distilled water + Tween-80): 127 % of control
survivor count (T/C endpoint: mean survival time, dose: 36.0 mg/kg/injection, schedule: Q01DX001 (ip), vehicle: distilled water + Tween-80): 5 of 6

C/C(C#N)=C/c1ccccc1
survivor count [2]: 0 of 6

CC(=O)/C=C(\C)OC1CCCCC1
survivor count (T/C endpoint: mean survival time, dose: 400.0 mg/kg/injection, schedule: Q01DX009 (ip), vehicle: saline): 3 of 6

CC1=Nc2ccccc2N2C1=CC1=C(C(=O)c3cc4ccccc4cc3C1=O)C2C (stereo unspecified)
survivor count (T/C endpoint: mean survival time, dose: 100.0 mg/kg/injection, schedule: Q04DX003 (ip), vehicle: saline): 2 of 3

Cc1cc(N(CC(C)Cl)CC(C)Cl)ccc1N=Nc1ccccc1C(=O)O (stereo unspecified)
survivor count [4]: 6 of 6
survivor count [5]: 0 of 3
survivor count [8]: 0 of 3
survivor count [9]: 0 of 3

O=C(Nc1cc(Cl)c(Cl)cc1Cl)Nc1cc(Cl)ccc1Oc1ccc(Cl)cc1S(=O)(=O)O
survivor count (T/C endpoint: mean survival time, dose: 400.0 mg/kg/injection, schedule: Q01DX001 (ip), vehicle: saline with Tween-80): 2 of 6

CCOCCNCc1ccc(Cl)c(Cl)c1
survivor count [2]: 0 of 6

COc1cc(N=Nc2ccccc2C(=O)O)ccc1N(CCCl)CCCl
survivor count [5]: 3 of 3
survivor count [8]: 0 of 3
survivor count [9]: 0 of 3

C/C=C1\CN2CCC34c5ccccc5N5C(=O)CCC(C1CC23)C54 (stereo unspecified)
survivor count (T/C endpoint: mean survival time, dose: 75.0 mg/kg/injection, schedule: Q01DX001 (ip), vehicle: saline): 0 of 6
survivor count [3]: 3 of 6
survivor count [6]: 0 of 6
survivor count [7]: 0 of 6

CC(C)(C)C(=O)C#Cc1ccccc1
survivor count (T/C endpoint: mean survival time, dose: 100.0 mg/kg/injection, schedule: Q01DX009 (ip), vehicle: saline): 5 of 6

From PubChem BioAssay AID256 (DTP/NCI, 2004)
